Literature values, collected in patent US20070065366A1, “Pharmaceutical formulations comprising a long-acting beta2-agonist for administration by nebulisation” (Chiesi Farmaceutici S.p.A., priority 2005, published 2007).
Like-named read-outs stand apart in the source and are kept apart here.

Details: buffer concentration increased from 5 mM to 20 mM, cited from earlier work

COc1ccc(CC(C)NCC(O)c2ccc(O)c(NC=O)c2)cc1 (centres unmarked) [formoterol]
effect of buffer concentration on the rate constant of decomposition (low and approximately neutral conditions): increased its rate constant of decomposition significantly | effect of buffer concentration on the rate constant of decomposition (pH region of about 4.5 to about 5.5): no noticeable differences in rate constant
